Source: PubChem BioAssay AID504834 (National Center for Advancing Translational Sciences (NCATS), 2011)
About 22,000 (6.9%) of roughly 320,000 compounds were called active. The shares of active, inactive and inconclusive entries below differ from those in the screen. The call rests on the fitted dose curve; in most records, active means well fitted inhibition curve with a large enough effect; inconclusive means small, poorly fitted or top-dose-only effect, or another doubt; inactive means no such curve, though single readings can be large or run the other way. A potency beside an inconclusive call is a rough fit, not a confirmed value.
On the % scale 0 is the no-effect control and ±100 the full control effect; potency means the concentration at half of the fitted maximal effect.

Assay: Primary qHTS for delayed death inhibitors of the malarial parasite plastid, 96 hour incubation
Settings: P. falciparum luciferase reporter growth; series mostly up to 28.7 µM; activity change, negative = inhibition: at the top concentration
Procedure, shortened: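 Infected RBCs, 2% Hct / 0.05% parasitemia final; luciferase-reporter P. falciparum; cpd 96 h, 37 C, 5% CO2; luciferase detection reagent; luminescence.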
With `O=C(O)C1CCCCC1C(=O)Nc1ccc(Cl)cc1` (configuration not stated) the Potency was inconclusive: 18.5 µM [inhibitor, single point]. In the case of `CCOc1ccc(C(=O)Nc2cc(C)c3c(=O)oc4ccccc4c3n2)cc1`, the Potency is reported as inconclusive: 18.5 µM [inhibitor, single point]. In the case of `CN(C)CC(=O)Nc1nc(-c2ccccc2)cs1`, the “activity change, negative = inhibition” value is reported as inactive: 89.4%. With `Cc1ccc2oc3c(c(=O)c2c1)C(c1cccc(Br)c1)N(Cc1ccco1)C3=O` (configuration not stated) the Potency was active: 13.1 µM. In the case of `C=CCc1ccccc1OCC(O)CN1CCN(c2ccccc2OC)CC1` (configuration not stated), the Potency is reported as inconclusive: 0.0026 µM [inhibitor, full curve, poor fit]. In the case of `C[C@@H](C(=O)NCC1CC1)[C@@H]1C[C@@]1(C)[C@@H](NC(=O)OCc1ccccc1)c1ccccc1`, the Potency is reported as active: 4.15 µM. In the case of `C[C@H](NC(=O)c1nc[nH]c1C(=O)NCC(=O)OC(C)(C)C)C(=O)OC(C)(C)C`, the “activity change, negative = inhibition” value is reported as inactive: 34.3%. With `O=C(NC1CCCCCC1)c1cc(S(=O)(=O)N2CCOCC2)ccc1N1CCCCC1` the Potency was active: 6.57 µM. With `Cc1cc(-c2nnc(CSc3nnc(NC(=O)c4ccc(C(C)(C)C)cc4)s3)o2)ccc1[N+](=O)[O-]` the “activity change, negative = inhibition” value was inactive: 91.3%. For `CCCCC(=O)OCc1c(-c2ccccc2)ncc2ccccc12`, the Potency was inconclusive: 16.5 µM [inhibitor, single point]. With `COc1ccc(OC)c(Cc2nnc(CCC(=O)NCc3nc4ccccc4s3)o2)c1` the Potency was active: 7.38 µM. In the case of `Cc1ccc(S(=O)(=O)N(CC(=O)NCc2cccs2)c2ccccc2)cc1`, the Potency is reported as inconclusive: 11.7 µM [inhibitor, single point]. For `COCCNCCOc1ccc(C)cc1[N+](=O)[O-]`, the Potency was inconclusive: 18.5 µM [inhibitor, single point]. For `O=C(CSc1nc(=O)n(CCCN2CCOCC2)c2c1CCCC2)Nc1ccccc1Cl`, the Potency was inconclusive: 7.38 µM [inhibitor, partial curve]. In the case of `CC1(C)CCc2cc(-c3ccn(S(=O)(=O)c4ccccc4Cl)n3)ccc2O1`, the Potency is reported as inconclusive: 14.7 µM [inhibitor, single point]. In the case of `O=C(N/N=C/c1cccc(Oc2ccccc2)c1)c1ccncc1`, the Potency is reported as active: 3.7 µM. For `O=C(OCCN1CCCCC1)c1ccccc1Br`, the “activity change, negative = inhibition” value was inactive: 48.2%. For `CN(C(=O)CSc1nc(-c2ccc(F)cc2)cs1)C1CCS(=O)(=O)C1` (configuration not stated), the Potency was inconclusive: 18.5 µM [inhibitor, single point]. With `COc1ccc(NC(=O)CN(C)C(=O)COc2ccccc2Cc2ccccc2)cc1` the Potency was inconclusive: 9.28 µM [inhibitor, partial curve, poor fit]. For `COCCNC(=O)/C(C#N)=C/C=C/c1ccccc1[N+](=O)[O-]`, the Potency was inconclusive: 11.7 µM [inhibitor, single point]. With `COc1ccc(C2C(C(C)=O)=C(C)Nc3ncnn32)cc1OC` (configuration not stated) the Potency was inconclusive: 18.5 µM [inhibitor, single point]. In the case of `Cc1ccc(C(=O)c2oc3ccccc3c2NC(=O)c2cc(-c3ccccc3O)n[nH]2)cc1`, the Potency is reported as active: 0.586 µM. In the case of `COC(=O)CSc1nnc(NC(=O)C2CC(=O)N(c3ccc(F)cc3)C2)s1` (configuration not stated), the Potency is reported as inconclusive: 11.7 µM [inhibitor, single point]. In the case of `COCCn1c(C)cc(O)c(C(=O)Nc2cccc(Cl)c2)c1=O`, the Potency is reported as inconclusive: 18.5 µM [inhibitor, single point]. In the case of `O=C1OC(c2ccccc2)=C/C1=C/N1CCOCC1`, the Potency is reported as inconclusive: 18.5 µM [inhibitor, single point]. In the case of `C/C(=N\NC(=O)c1ccc([N+](=O)[O-])cc1Cl)c1ccccc1`, the “activity change, negative = inhibition” value is reported as inactive: 38.9%. With `CCn1cc(C2=NOC(C(=O)Nc3cc(C)nn3-c3ccccc3)C2)c(C)n1` (configuration not stated) the “activity change, negative = inhibition” value was inactive: 19.3%. In the case of `Cc1cccc(NC(=O)Cn2nnc3ccccc32)c1`, the Potency is reported as inconclusive: 4.15 µM [inhibitor, single point]. With `CCN(C(=O)CN1C(=O)COc2ccc(S(=O)(=O)N3CCOCC3)cc21)c1ccc(OC)cc1` the Potency was inconclusive: 10.4 µM [inhibitor, single point]. In the case of `COc1ccc(OCCN2CCN(C(=O)c3ccc(OC)c(OC)c3)CC2)cc1`, the “activity change, negative = inhibition” value is reported as inactive: 8.71%. For `O=C(COc1ccccc1C(=O)NCc1ccccc1)Nc1ccccc1`, the “activity change, negative = inhibition” value was inactive: -27.4%. For `O=C(Nc1ccc([N+](=O)[O-])cc1)c1cncc(Br)c1`, the “activity change, negative = inhibition” value was inactive: -8.14%. With `CCOC(=O)c1[nH]c(C)c(C(=O)NCc2ccc(Cl)cc2)c1C` the Potency was inconclusive: 10.4 µM [inhibitor, partial curve, poor fit]. For `CC(C)Oc1cccc(C(=O)C2CCCN(C(=O)c3cc(C4CC4)[nH]n3)C2)c1` (configuration not stated), the Potency was inconclusive: 9.28 µM [inhibitor, partial curve, poor fit]. With `Oc1ccccc1-c1nc(NCc2cccnc2)c2ccccc2n1` the Potency was inconclusive: 2.94 µM [inhibitor, partial curve, poor fit]. With `CCCOc1ccc(/C=N/NC(=O)CN2CCCCC2)cc1OCC` the “activity change, negative = inhibition” value was inactive: 0.529%. For `Cc1cc(C)c(CN2CCC(CO)(CCOc3ccccc3)CC2)cc1C`, the “activity change, negative = inhibition” value was inactive: -0.439%. In the case of `CCN1CCN(C(=S)c2ccc(OCC(=O)NCc3ccccc3)cc2)CC1`, the “activity change, negative = inhibition” value is reported as inactive: 14.5%. In the case of `Cc1c(C(=O)C(=O)N2CCCc3ccccc32)c2ccccc2n1C`, the Potency is reported as inconclusive: 10.4 µM [inhibitor, single point]. In the case of `O=C(NCC(c1ccc(F)cc1)N1CCOCC1)c1ccc(Br)o1` (configuration not stated), the Potency is reported as inconclusive: 18.5 µM [inhibitor, single point]. With `Clc1cc(Br)ccc1OCCOCCN1CCCC1` the Potency was inconclusive: 18.5 µM [inhibitor, single point]. For `Cc1ccc(/C=N\Nc2nc3ccc(Cl)cc3[nH]2)o1`, the Potency was active: 2.33 µM. For `CN(C)S(=O)(=O)c1cc(NC(=O)CSc2ncc(C(F)(F)F)cc2Cl)ccc1Cl`, the Potency was inconclusive: 18.5 µM [inhibitor, single point]. In the case of `Cc1cccc(NC(=O)CCC(=O)OCc2ccc(Br)cc2)c1`, the Potency is reported as inconclusive: 0.233 µM [inhibitor, full curve]. In the case of `CCc1cccc(C)c1NC(=O)CSc1nnc(CCCOc2ccc(Cl)cc2Cl)n1C`, the “activity change, negative = inhibition” value is reported as inactive: -26.3%. In the case of `O=C(NC(=S)Nc1ccccc1O)c1cccnc1`, the “activity change, negative = inhibition” value is reported as inactive: 212%. In the case of `CC(=O)c1ccc(Cc2ccc(C(C)=O)cc2)cc1`, the Potency is reported as inconclusive: 13.1 µM [inhibitor, single point].
